In all, about 210,000 compounds went through this assay and about 5,900 (2.8%) were called active. Not shown: some 5% with an inconclusive outcome. The call rests on the fitted dose curve; in most records, active means well fitted activation curve with a large enough effect; inconclusive means small, poorly fitted or top-dose-only effect; inactive means no such curve, though single readings can be large or run the other way. This is a selection; strong and weak results do not stand in their true shares. Entries without a call were filed so in the source.
Test: qHTS Assay for Enhancers of SMN2 Splice Variant Expression; further: nearly all actives have a fitted effect of over 55% in size; on activity change, positive = activation: % of control where 0% means no effect
Conditions: HEK293 SMN2-luciferase splicing reporter, luminescence, 30-36 h; activity change, positive = activation: at 46.1 µM (top of the series) unless noted
How it was run: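 qHTS luciferase splicing reporter: luminescence rises when SMN2 exon 7 is included in transfected HEK293 cells. Compound exposure lasted 30-36 h at 37C, with 4.5 mM final sodium butyrate as control, followed by a ONE-Glo read.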
Potency means the concentration at half of the fitted maximal effect.

Row | SMILES | activity change, positive = activation | Potency
1 | Cc1nc(Nc2ccc(C(=O)O)cc2)sc1-c1ccccc1 | -60.4% | 
2 | COc1ccc(CCNc2ncnc3[nH]ncc23)cc1OC | -51.3% | 
3 | CCOC(=O)CCNC(C(=O)OCC)c1ccccc1 (stereo unspecified) | 31.7% | 
4 | N#CCCN(CC(=O)O)S(=O)(=O)c1ccccc1 | 53.3% | 
5 | O=S(=O)(Nc1ccccc1Cl)c1ccc(F)cc1 | 49.2% | 
6 | Fc1ccc(CSc2nc3ccccc3[nH]2)cc1 |  | active: 11.2 µM
7 | CC(C)Cn1c(-c2ccc(Br)o2)n[nH]c1=S | inactive: -7.91% | 
8 | O=C(c1ccc(Cl)s1)N1CCN(c2nc3ccccc3s2)CC1 | inactive: -34.8% | 
9 | COc1cc(OC)c(C2=NOC(C(=O)NCc3ccc4c(c3)OCO4)C2)cc1Cl (stereo unspecified) | 34.5% | 
10 | CC(=O)Nc1ccc(Nc2ccc(N3C(=O)CCCC3=O)cc2[N+](=O)[O-])cc1 | -2.75% | 
11 | COC(=O)c1ccc(N2C(=O)CC(SCCN)C2=O)cc1 (stereo unspecified) |  | active: 11.2 µM
12 | Cc1nc(-c2c(-c3ccc(O)cc3O)noc2C(F)(F)F)cs1 | 38.9% | 
13 | CC(C)(C)C(=O)Nc1cc2nn(-c3ccccc3)nc2cc1Cl | inactive: -95.5% | 
14 | CCn1c(Cc2ccccc2)nnc1SCC(=O)Nc1nnc(-c2ccccc2)s1 |  | active: 0.112 µM
15 | Cc1nc2nc(-c3ccccc3)cn2nc1C |  | active: 8.91 µM
16 | O=C(Nc1ccc(-c2nnc3n2CCCCC3)cc1)c1cc2ccccc2o1 | inactive: -2.06% | 
17 | Cc1ccc(CC(=O)NCC(C)C)cc1 | 27.1% | 
18 | COC(=O)c1cc(C(=O)OC)cc(N2C(=O)CN=C2Nc2nc(C)cc(C)n2)c1 | 66.1% | 
19 | CN(C)c1ccc(-n2cccc2/C=C/[N+](=O)[O-])cc1 | inactive: -40.9% | 
20 | COc1cc2ncc(S(=O)(=O)c3ccccc3)c(N3CCC4(CC3)OCCO4)c2cc1OC | 36.1% | 
21 | CC1CCc2noc(NC(=O)c3ccc([N+](=O)[O-])cc3)c2C1 (stereo unspecified) | 41.1% | 
22 | CCOc1ccc2oc(-c3ccccc3)c(C(=O)N3CCN(C)CC3)c2c1 | 37.4% | 
23 | O=C(CSc1ncccn1)c1ccccc1Br |  | active: 12.6 µM

Row | SMILES | activity change, positive = activation | Potency
24 | COc1ccc(C(=O)NCc2nnc(SCC(=O)NO)n2Cc2ccccc2)cc1 | -23.3% | 
25 | O=C(c1cccc(S(=O)(=O)N2CCc3ccccc3C2)c1)N1CCN(c2ccc(O)cc2)CC1 | inactive: -37% | 
26 | Cc1cc(C)nc(Nc2nc3ccccc3[nH]2)n1 |  | active: 12.6 µM
27 | O=C(/C=C\Nc1ccc(Br)cc1)c1cccnc1 | 243% | 
28 | CCCNC(=O)CN(c1ccc(F)c(Cl)c1)S(C)(=O)=O | 31.2% | 
29 | Cc1cc(C)cc(Oc2ccc(N)cc2)c1 |  | active: 12.6 µM
30 | N#CCSCC(=O)Nc1ccc(Br)cc1 | 33.6% | 
31 | CCOc1ccccc1Nc1nnc(SCC(=O)Nc2cccc(S(=O)(=O)NC3=NCCCCC3)c2)s1 | inactive: -42.6% | 
32 | O=C(CCCOc1ccc(Cl)cc1Cl)N/N=C/c1ccccc1O | inactive: -82% | 
33 | O=C(Nc1cc(N2CCOCC2)ncn1)NC1(C(F)(F)F)Oc2ccc(Cl)cc2O1 (stereo unspecified) |  | active: 20 µM
34 | COc1ccc(/C=C/C(=O)c2ccccc2O)cc1 | 40.9% | 
35 | CCN(CCCNC(=O)C1CCN(S(=O)(=O)CC)CC1)c1ccccc1 | 39.9% | 
36 | CCOC(=S)SCc1cn2ccc(C)cc2n1 | inactive: -31.4% | 
37 | CN(Cc1nc2ccccc2n1C)S(=O)(=O)c1ccc(Cl)cc1 | 44.6% | 
38 | CCC(=O)Nc1cccc(C(=O)/C=C/c2cccs2)c1 | inactive: -63.5% | 
39 | CC(=O)Nc1ccc(/C=N/NC(=O)c2cccs2)cc1 |  | active: 17.8 µM
40 | CCOc1ccccc1NC(=O)CSc1nnc(-c2ccccc2Cl)n1Cc1ccco1 | 37.7% | 
41 | COC(=O)c1cc(CSc2nnc(NC3CCCCC3)s2)oc1C | -56.5% | 
42 | O=C(C1CCCCC1)N(CCN1CCN(c2ccccc2CO)CC1)c1ccccn1 | inactive: -31.9% | 
43 | Cc1cc(/C=N\NC(=O)COc2cccc3cccnc23)c(C)n1-c1ccccc1 | -21.8% | 
44 | COc1ccc(NC(=O)c2sccc2C)cn1 | 123% | 
45 | CCOC(=O)N1CCN(C(=O)CCCOc2ccccc2)CC1 |  | active: 12.6 µM
46 | O=C(Nc1cccc(Cl)c1Cl)c1ccc2c(c1)N(Cc1cccc(Cl)c1)C(=O)c1ccccc1S2(=O)=O | 40.9% | 

Row | SMILES | activity change, positive = activation | Potency
47 | Cn1cccc1C(=O)OCc1csc(-c2ccccc2)n1 |  | active: 11.2 µM
48 | O=C(Nc1ccc(N2CCCCC2)cc1)c1ccccc1 |  | active: 1.41 µM
49 | COc1ccc2c(CC(=O)Nc3ccccc3OC)coc2c1 | 48.1% | 
50 | CCOC(=O)c1c(O)c2c([nH]c1=O)CCCC2 | -4.44% | 
51 | CC1(C)Cc2ccccc2C2=C(C(=O)N3CCCCCC3)C(=O)C(=O)N21 | -44.9% | 
52 | C/C(=N\Nc1ccccn1)c1ccc2c(c1)OCO2 | 131% | 
53 | CCCCN(C)C(=S)Nc1ccc2nc(N3CCN(CC)CC3)cc(C)c2c1 | 30.9% | 
54 | Cc1ccc2cc(C#N)c(NCCCNC(=O)C3CCCO3)nc2c1 (stereo unspecified) | 41.6% | 
55 | Cc1ccc(Cn2c(C(C)NC(=O)c3ccccc3)nc3ccccc32)cc1 (stereo unspecified) | 41.6% | 
56 | Clc1ccc(-c2cnc(Oc3ccccc3)nc2)cc1 |  | active: 14.1 µM
57 | CC(C)OC(=O)c1ccc(N2C(=O)C3CC=CCC3C2=O)cc1 (stereo unspecified) | 43.1% | 
58 | O=C(c1ccco1)N1CCC2(CC1)CN(c1cccc(-c3ccccc3)c1)C2 | inactive: -46.6% | 
59 | COC(=O)c1cc(NC(=O)N2c3ccccc3Sc3ccccc32)cc(C(=O)OC)c1 | inactive: -35.1% | 
60 | COc1cc(C(=O)Nc2nc(-c3ccc(F)cc3)cs2)ccc1OCC(=O)N1CCOCC1 | -58.4% | 
61 | Cc1cc(C)n(-c2nnc(SCC(=O)NC3CCCC3)c3ccccc23)n1 | inactive: -39.5% | 
62 | CCOC(=O)c1c(-c2ccc(C)cc2)csc1NC(=O)c1cc(=O)c2cc(C)cc(C)c2o1 | 45.7% | 
63 | O=c1c2c3c(sc2ncn1/N=C/c1ccc([N+](=O)[O-])o1)CCCC3 | -84.1% | 
64 | N/C(=N\OC(=O)/C=C/c1ccccc1)c1ccccc1 | 51.1% | 
65 | O=C(Nc1nc2c(s1)C(=O)CCC2)c1ccccc1 |  | active: 1.58 µM
66 | COc1cnc(-c2ccccn2)nc1Oc1c(C)cccc1C | -97.7% | 
67 | COc1ccc(CNc2n[nH]c(NCc3ccc(OC)c(OC)c3)n2)cc1OC | 36.2% | 
68 | CCn1c(C(=O)NCc2ccccc2Br)cc2oc3ccccc3c21 |  | active: 4.47 µM
69 | COc1ccc(C(=O)C2CCN(C(=O)c3ccc(C)cc3)CC2)cc1 | -65.2% | 

Row | SMILES | activity change, positive = activation | Potency
70 | Cc1ccccc1NC(=O)c1ccc(F)c(S(=O)(=O)N2CCCCC2)c1 | -56.2% | 
71 | Cc1nc(-c2ccc(C(=O)N3CCCC3)cc2)cs1 | 47.1% | 
72 | CC1(c2ccc3noc(-c4ccccc4)c3c2)OCCO1 | -71.7% | 
73 | CC1(C)C2CCC13CS(=O)(=O)N[C@@H]3C2 (stereo partly specified) | 54.7% | 
74 | O=C(N1CCCCC1)N1CCN(C(=O)N2CCCCC2)CC1 | -26.8% | 
75 | Nc1cc2nn(-c3ccccc3)nc2cc1Cl |  | active: 3.16 µM
76 | O=C(CCCOc1ccccc1)Nc1ccc2c(c1)OCCO2 | 32.5% | 
77 | CC1(C)CC(=O)C=C(Nc2ccc(S(N)(=O)=O)cc2)C1 | 37.1% | 
78 | FC(F)(F)c1cnc(-c2cnc(-c3cccnc3)nc2)c(Cl)c1 |  | active: 12.6 µM
79 | CC(=O)Nc1ccc(/C(C)=N/NC(=O)c2ccc(CN3CCOCC3)cc2)cc1 | inactive: -42.6% | 
80 | Cc1nn(-c2ccccc2)c(/N=C/c2ccccc2O)c1-c1ccccc1 |  | active: 11.2 µM
81 | Cc1cc(=O)oc2c(C(=O)/C=C/c3ccccc3)c(O)ccc12 | 35.3% | 
82 | O=C(O)/C=C/C(=O)Nc1ccc2nccnc2c1 | inactive: 42.4% | 
83 | O=C(O)c1ccccc1N/N=C\c1ccnc2ccccc12 |  | active: 5.01 µM
84 | COC(=O)c1ccc(CO/N=C/c2ccc(OC)cc2)o1 | 161% | 
85 | CC(C)CNC(=S)NC(=O)c1ccccc1Cl | 33% | 
86 | NC(=O)NC(CC(=O)NCCCc1ccccc1)c1ccccc1Cl (stereo unspecified) | -14.4% | 
87 | CC(C)C(C(=O)Nc1ccc2c(c1)OCCOCCOCCOCCO2)N1C(=O)c2ccccc2C1=O (stereo unspecified) | inactive: -18.3% | 
88 | CCN(CC)CCNC(=O)c1ccccc1C(=O)c1ncc[nH]1 | -38.8% | 
89 | CCOc1ccc(C(=O)N(Cc2nc(-c3cccc(C)c3)no2)C(C)C)cc1 | 36.7% | 
90 | Cc1ccc(C(=O)N/C(=C/c2ccco2)C(=O)NCCCn2ccnc2)cc1 | 36.4% | 
91 | N/C(=N\OC(=O)c1ccccc1Cl)c1ccc(Cl)cc1 |  | active: 15.8 µM
92 | Cc1cc2c(cc1C)NC(c1nc3ccccc3[nH]1)C1=C(CC(C)(C)CC1=O)N2 (stereo unspecified) | 31.1% | 

Molecules listed so far that contain a cyano group:
Row | SMILES | activity change, positive = activation | Potency
4 | N#CCCN(CC(=O)O)S(=O)(=O)c1ccccc1 | 53.3% | 
30 | N#CCSCC(=O)Nc1ccc(Br)cc1 | 33.6% | 
54 | Cc1ccc2cc(C#N)c(NCCCNC(=O)C3CCCO3)nc2c1 (stereo unspecified) | 41.6% | 

Five entries from above, tab-delimited:
Row	SMILES	activity change, positive = activation	Potency
71	Cc1nc(-c2ccc(C(=O)N3CCCC3)cc2)cs1	47.1%	
72	CC1(c2ccc3noc(-c4ccccc4)c3c2)OCCO1	-71.7%	
74	O=C(N1CCCCC1)N1CCN(C(=O)N2CCCCC2)CC1	-26.8%	
77	CC1(C)CC(=O)C=C(Nc2ccc(S(N)(=O)=O)cc2)C1	37.1%	
87	CC(C)C(C(=O)Nc1ccc2c(c1)OCCOCCOCCOCCO2)N1C(=O)c2ccccc2C1=O (stereo unspecified)	inactive: -18.3%	

Remaining list, next part:

Row | SMILES | activity change, positive = activation | Potency
93 | CC(=O)c1c(C)oc2c1C(=O)c1ccccc1C2=O | -89.7% | 
94 | N#Cc1c(/N=C\c2ccc(O)c([N+](=O)[O-])c2)sc2c1CCCC2 | 105% | 
95 | O=C(CCc1ccc(S(=O)(=O)N2CCOCC2)cc1)Nc1nc(COc2ccccc2)cs1 | inactive: -64.5% | 
96 | COc1cc(C(=O)Oc2ccccc2/C=N/NC(=O)c2ccc(C)c(Cl)c2)cc(OC)c1OC | inactive: -95.9% | 
97 | Cc1ccnc(NC(=O)c2cc3ccccc3oc2=O)c1 |  | active: 11.2 µM
98 | Cc1ccc(NC(=O)NC2(C(=O)NCc3ccco3)CCCCC2)cc1 | 48.3% | 
99 | COc1ccccc1NC(=S)NC1CCCCC1 | 32.6% | 
100 | Cc1cc(=O)n2c(-c3ccccc3C)n[nH]c2n1 | 37.2% | 
101 | Cc1cccc(N/N=C/c2ccccc2O)c1 |  | active: 11.2 µM
102 | O=c1c2cc(N3CCOCC3)ccc2[nH]c(=S)n1Cc1ccco1 | 31.7% | 
103 | c1coc(C2=Nc3cccc4cccc(c34)N2)c1 | inactive: -36.8% | 
104 | CCOC(=O)c1ccc2c(c1)nc(COc1ccccc1C#N)n2CC | 51.2% | 
105 | O=C(Cc1ccccc1)NN1C(=O)C2C3C=CC(C3)[C@@H]2C1=O (stereo partly specified) | inactive: 7.56% | 
106 | CN(C)S(=O)(=O)c1ccc(NC(=O)N2CCN(c3ccccc3Cl)CC2)cc1 | inactive: -48.2% | 
107 | COc1ccc(Cc2[nH]n3c(=O)cc(C(C)C)nc3c2-c2ccccc2)cc1 | inactive: -78.5% | 
108 | COc1ccc(-c2cc3ncc(C(C)=O)c(C)n3n2)cc1 |  | active: 11.2 µM
109 | Cc1ccc(S(=O)(=O)N2CCCC2C(=O)Oc2ccccc2)cc1 (stereo unspecified) | 46.8% | 
110 | COc1ccc(C(N)=O)cc1NC(=O)CC(O)(C(F)(F)F)C(F)(F)F | 34.1% | 
111 | COc1cc(S(=O)(=O)Nc2cccc(C)c2)ccc1NC(=O)c1cccnc1 | inactive: -37.5% | 

Source: PubChem BioAssay AID1458 (National Center for Advancing Translational Sciences (NCATS), 2008)
